Consider one substance from article PMC9284171.

By UniProt entry, the sequences of proteins in these tests, tags left out.
UniProt P15104: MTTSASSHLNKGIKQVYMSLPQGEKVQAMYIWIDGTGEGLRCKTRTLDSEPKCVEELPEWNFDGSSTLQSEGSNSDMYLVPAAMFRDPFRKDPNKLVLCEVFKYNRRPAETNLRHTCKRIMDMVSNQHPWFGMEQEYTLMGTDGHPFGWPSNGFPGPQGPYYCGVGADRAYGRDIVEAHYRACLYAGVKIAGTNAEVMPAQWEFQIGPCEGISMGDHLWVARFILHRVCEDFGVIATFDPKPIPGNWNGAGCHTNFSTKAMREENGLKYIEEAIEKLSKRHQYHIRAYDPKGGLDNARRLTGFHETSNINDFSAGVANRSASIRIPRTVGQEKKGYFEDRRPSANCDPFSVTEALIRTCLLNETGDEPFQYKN
UniProt O15379: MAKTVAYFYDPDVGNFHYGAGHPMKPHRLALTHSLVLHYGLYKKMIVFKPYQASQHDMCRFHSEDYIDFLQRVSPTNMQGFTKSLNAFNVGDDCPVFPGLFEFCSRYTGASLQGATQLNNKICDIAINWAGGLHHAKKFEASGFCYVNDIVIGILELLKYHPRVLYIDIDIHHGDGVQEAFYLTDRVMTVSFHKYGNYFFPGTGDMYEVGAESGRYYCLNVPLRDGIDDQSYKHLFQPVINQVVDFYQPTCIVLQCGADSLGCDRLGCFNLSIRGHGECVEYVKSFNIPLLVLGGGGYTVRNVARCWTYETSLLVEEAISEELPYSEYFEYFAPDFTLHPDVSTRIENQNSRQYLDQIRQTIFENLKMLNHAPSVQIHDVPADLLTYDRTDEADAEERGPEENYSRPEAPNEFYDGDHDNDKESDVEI

These are yes or no findings as the source states them, for the method shown. In cells and extracts the contact can be indirect. Some results given as binding are weak or reduced against the parent protein; the word gives no strength.

This assay has as its target glutamine synthetase (GS), Flag-tagged (human) (UniProt P15104). Put plainly: co-IP; co-IP from cells cultured with or without glutamine (Figure S7A-D); bait, cell line and buffers not shown.

As to “HDAC3, HA-tagged (from UniProt O15379 1-428) (enzyme)”, the binding result is recorded as “binds”.
